From PubChem BioAssay AID1259415 (National Center for Advancing Translational Sciences (NCATS), 2018)
The whole screen tested about 410,000 compounds, of which about 18,000 (4.4%) were called active. Inconclusive results, whose numbers are uncertain, are shown with a selection of clear calls. No stated cut-off is given here; in the data, active means activity change below about -60%; inconclusive means no clear call, values can overlap the other calls; inactive means above about -39%.

Assay: qHTS Assay for inhibitors of the human cytomegalovirus (HCMV)
Details: HFF cells, HCMV-luciferase reporter, 72 h; at 57.5 µM; hits give low values
Outline: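 Human foreskin fibroblasts infected with luciferase-reporter HCMV at MOI 1 PFU/cell, compounds at two doses. Luciferase measured 72 h post infection; normalized to buffer-only basal and Salinomycin (10uM) controls.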
On the % scale 0 is the no-effect control and ±100 the full control effect.

Question: Which activity change, negative = inhibition does the source give for Cc1ccc(NC(=S)NC2CCN(Cc3ccccc3)CC2)cc1 here?
Answer: inconclusive: -43%

Question: Which activity change, negative = inhibition does the source give for COc1ccc(CCNC(=O)c2ccc(-n3c(C)cc4c3CCC(C)C4)cc2)cc1OC (stereo not drawn) here?
Answer: inconclusive: -58.9%

Question: For COc1ccc(/C=C/C(=O)NC(=S)N2CCN(C)CC2)cc1, which activity change, negative = inhibition is on record?
Answer: inconclusive: -44.8%

Question: Which activity change, negative = inhibition does the source give for O=C(Cc1ccc(Cl)cc1)Nc1ccncc1 here?
Answer: inconclusive: -56.7%

Question: With CCCCN(C)C(=O)c1ccc2c(=O)n3nc(Nc4cc(C)ccc4C)sc3nc2c1 as the compound, how does the activity change, negative = inhibition read?
Answer: inactive: -32.5%

Question: For CC(C)(C)c1ccc(CN2N=Nc3ccccc3S2(=O)=O)cc1, which activity change, negative = inhibition is on record?
Answer: inconclusive: -52.6%

Question: For CCN1CCc2c(sc(NC(=O)c3ccc(S(=O)(=O)N4CCCC(C)C4)cc3)c2C(=O)OC)C1 (stereo not drawn), which activity change, negative = inhibition is on record?
Answer: inactive: -39%

Question: With COc1ccc(Cl)cc1NC(=S)N1CCCC1 as the compound, how does the activity change, negative = inhibition read?
Answer: inconclusive: -46.6%

Question: With COC(=O)c1cc(NC(=O)c2ccccc2)c(=O)oc1/C=C/Nc1ccc(Oc2ccccc2)cc1 as the compound, how does the activity change, negative = inhibition read?
Answer: inconclusive: -46%

Question: Which activity change, negative = inhibition does the source give for O=C1CCCc2oc3c(cc(NS(=O)(=O)c4ccc5c6c(cccc46)C(=O)N5)c4ccccc43)c21 here?
Answer: inconclusive: -46.6%

Question: With O=C(Nc1ccc(Oc2ccc3c(c2)C(=O)N(c2ccc(O)cc2)C3=O)cc1)c1cccs1 as the compound, how does the activity change, negative = inhibition read?
Answer: active: -77.5%

Question: With Cn1c(CCc2ccccc2)n[nH]c1=S as the compound, how does the activity change, negative = inhibition read?
Answer: inactive: -20.3%

Question: With Cc1c(CCOC(=O)CC23CC4CC(CC(C4)C2)C3)sc[n+]1Cc1ccccc1 as the compound, how does the activity change, negative = inhibition read?
Answer: inconclusive: -55.7%

Question: For Cc1cc(C)cc(OCC(=O)Nc2ccc3c(c2)OCCO3)c1, which activity change, negative = inhibition is on record?
Answer: inconclusive: -52.2%

Question: With Cn1ccc2c(-c3cccc(C=O)c3F)cc3c(c21)C1CCC3C1 (stereo not drawn) as the compound, how does the activity change, negative = inhibition read?
Answer: inconclusive: -40.1%

Question: Which activity change, negative = inhibition does the source give for Cc1ncc(CN2CCCCC2C(=O)Nc2ccc(Oc3ccccc3)nc2)cn1 (stereo not drawn) here?
Answer: inactive: -10.2%

Question: Which activity change, negative = inhibition does the source give for Cc1ccc(NC(=O)COc2cccc(C)c2C)cc1S(=O)(=O)N1CCCCCC1 here?
Answer: inconclusive: -49.7%

Question: Which activity change, negative = inhibition does the source give for O=C1CC(c2ccccc2)CCc2sccc2N1 (stereo not drawn) here?
Answer: inconclusive: -46.3%

Question: For O=C(CN1C(=O)COc2ccccc21)N1CCc2ccccc21, which activity change, negative = inhibition is on record?
Answer: inactive: 47.6%

Question: For CN1OC[C@@H]2CN(S(=O)(=O)c3cccc4ccccc34)[C@H](c3ccc(-c4ccccc4)cc3)C[C@@H]21, which activity change, negative = inhibition is on record?
Answer: inactive: -7.64%

Question: With CC(=O)c1ccc(NC(=O)C2CCN(S(=O)(=O)c3ccc4[nH]c5c(c4c3)CCCCC5)CC2)cc1 as the compound, how does the activity change, negative = inhibition read?
Answer: inconclusive: 0%

Question: For O=[N+]([O-])c1ccc(N2CCCCCC2)c([N+](=O)[O-])c1, which activity change, negative = inhibition is on record?
Answer: inactive: 39.7%

Question: Which activity change, negative = inhibition does the source give for CC(C)Nc1nnc(SCc2cc(=O)n3ccsc3n2)s1 here?
Answer: inconclusive: -52.8%

Question: Which activity change, negative = inhibition does the source give for CCCOc1ccc(C2c3c(oc4ccccc4c3=O)C(=O)N2c2nnc(C(C)C)s2)cc1 (stereo not drawn) here?
Answer: inactive: 13.3%

Question: For CCOc1ccc(-c2nnn(CC(=O)NCc3ccco3)n2)cc1, which activity change, negative = inhibition is on record?
Answer: inactive: 21.9%

Question: Which activity change, negative = inhibition does the source give for Cc1coc(C)c1C(=O)CC1(O)C(=O)N(C)c2ccc(Cl)cc21 (stereo not drawn) here?
Answer: inactive: 0%

Question: For CN(Cc1cccs1)C(=O)c1ccc(Cl)c(S(=O)(=O)N2CCCCCC2)c1, which activity change, negative = inhibition is on record?
Answer: inconclusive: -43.1%

Question: With COc1ccc(CC(=O)N2CC(=O)Nc3ccc(F)cc3C2c2ccccc2)cc1 (stereo not drawn) as the compound, how does the activity change, negative = inhibition read?
Answer: inactive: 1.81%

Question: With Cc1ccccc1C(=O)NNC(=O)CSc1nc(-c2ccccc2)cc(=O)[nH]1 as the compound, how does the activity change, negative = inhibition read?
Answer: inconclusive: -40.5%

Question: Which activity change, negative = inhibition does the source give for Cc1ccc2nsnc2c1NC(=O)c1ccc2c(c1)OCCO2 here?
Answer: inconclusive: -54.8%

Question: With S=c1nc(-c2csc3c2CCCC3)[nH][nH]1 as the compound, how does the activity change, negative = inhibition read?
Answer: inconclusive: -50.6%

Question: For COc1c2c(cc3oc(=O)c4c5ccc(O)cc5oc4c13)OC(C)(C)CC2, which activity change, negative = inhibition is on record?
Answer: inconclusive: -43%

Question: Which activity change, negative = inhibition does the source give for CN1C(C(=O)Nc2cccc(O)c2)=CC(c2cccs2)=NS1(=O)=O here?
Answer: inconclusive: -52.8%

Question: Which activity change, negative = inhibition does the source give for CCSC1=N/C(=C\C=C2/Oc3ccccc3N2CC)C(=O)S1 here?
Answer: inconclusive: -40.6%

Question: For O=C(NCCc1nc2ccccc2n1Cc1ccccc1F)c1ccc(F)cc1, which activity change, negative = inhibition is on record?
Answer: inconclusive: -46.7%

Question: Which activity change, negative = inhibition does the source give for O=C(CSc1cccc2cccc(Cl)c12)NCc1cccs1 here?
Answer: inconclusive: -45.5%

Question: Which activity change, negative = inhibition does the source give for CCCCCc1cc(=O)oc2c(C(CCN(CC)CC)c3ccc(OC)cc3)c(OC)cc(OC)c12 (stereo not drawn) here?
Answer: active: -80.6%

Question: For O=[N+]([O-])c1ccccc1CNc1ccc(F)c(Cl)c1, which activity change, negative = inhibition is on record?
Answer: inconclusive: -46.5%

Question: With Cc1ccc(Cc2c(-c3cccc(Br)c3)nc3c(C)cc(Br)cn23)cc1 as the compound, how does the activity change, negative = inhibition read?
Answer: inactive: 36.6%

Question: For COc1ccc(Br)c(OC)c1C(=O)NC(=O)Nc1c(F)cccc1F, which activity change, negative = inhibition is on record?
Answer: inconclusive: -40.9%

Question: For Cc1[nH]c2ccc(OC(=O)N3CCOCC3)cc2c1C(=O)OC(C)C, which activity change, negative = inhibition is on record?
Answer: inconclusive: -47%

Question: For CCOCC(O)CNc1ccccc1 (stereo not drawn), which activity change, negative = inhibition is on record?
Answer: inconclusive: -40.7%

Question: Which activity change, negative = inhibition does the source give for CCCCNCCS(=O)(=O)NCc1ccc(OC)cc1 here?
Answer: inactive: 0.506%
